Screen size: about 400,000 compounds; about 13,000 (3.2%) were called active. Inconclusive means that the source gave no clear call. Such entries were picked first, then a sample of the others. Calls follow the shape of the dose curve; as a rule, active = well fitted cell-killing curve with a large enough effect; inconclusive = small, poorly fitted or top-dose-only effect, or effect the other way; inactive = flat fitted curve, though single readings scatter. Potencies of inconclusive entries are doubtful fits and often do not repeat.
test: qHTS assay for MDR1-selective chemotherapeutics: Primary screen using the drug-selected MDR subline cells KB-V1; settings: KB-V1 MDR cells viability, CellTiter-Glo, 72 h; activity change, negative = cytotoxicity: at 46.1 µM (top of the series); also: nearly all actives have a fitted effect of over 60% in size
Method in brief: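 Luminescent ATP read-out (CellTiter-Glo, 10 min) measures survival of drug-selected KB-V1 MDR cells after 72 h, 37 degrees C compound exposure. Medium: phenol-red-free DMEM, 10% FBS. Values from fitted concentration-response curves.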
% is scaled to controls: 0 for no effect and ±100 for the full control effect; potency is read from the fitted curve at half-maximal effect.

Row | Structure (SMILES) | Potency | activity change, negative = cytotoxicity
1 | Cc1ccc(-c2nnc(N3CCC(C)CC3)c3ccccc23)cc1 | inconclusive: 29.1 µM [cytotoxic, single point] | 
2 | CCOC(=O)N1CCN(c2ccc(C(=O)c3cccc(F)c3)cc2)CC1 | inconclusive: 14.6 µM [cytotoxic, partial curve, poor fit] | 
3 | COc1ccc(Nc2nc(NCC3CCCO3)nc(N)c2[N+](=O)[O-])cc1 (stereo not drawn) | inactive | 
4 | COc1ccccc1-c1cc(C(F)(F)F)nc(S(=O)(=O)CCCC(=O)Nc2cc(C)ccc2O)n1 | inconclusive: 5.8 µM [rising, full curve] | 
5 | COc1ccc(CCCC(=O)N/N=C/c2ccccc2OC)cc1 | inactive | 
6 | COC(=O)c1c(C)[nH]c(C(=O)CN2CCOCC2)c1C | inconclusive: 18.4 µM [rising, partial curve, poor fit] | 
7 | CCCNC(=O)c1ccccc1NC(=O)Cc1ccc(OC)c(S(=O)(=O)N2CCOCC2)c1 | inconclusive: 29.1 µM [cytotoxic, single point] | 
8 | CCN(CCCNC(=O)COc1cc(=O)n(C)c2ccccc12)c1cccc(C)c1 | inconclusive: 7.31 µM [cytotoxic, partial curve] | 
9 | O=C(CN1CCc2ccccc21)NN1CC(=O)N(c2ccc(Cl)cc2)CC1=O | inconclusive: 16.4 µM [rising, single point] | 
10 | CCN(CC)c1ccc(NC(=O)COc2ccc(N(C)S(=O)(=O)c3cccs3)cc2)cc1 | inconclusive: 20.6 µM [cytotoxic, partial curve, poor fit] | 
11 | CCC1COCCS(=O)(=O)N1Cc1ccc(Cl)cc1 (stereo not drawn) | inconclusive: 18.4 µM [cytotoxic, partial curve, poor fit] | 
12 | O=C1CCN(Cc2ccccc2)CCN1CCSc1ccccc1 | inconclusive: 20.6 µM [cytotoxic, partial curve, poor fit] | 
13 | Cc1n[nH]c(=O)c2c(NC(=O)CSc3ccccc3Cl)oc(C)c12 | inconclusive: 18.4 µM [cytotoxic, single point] | 
14 | COc1cccc(NC(=O)C2CC(=O)n3cnnc3S2)c1 (stereo not drawn) | inactive | 
15 | CCc1c(C)sc(NC(=O)c2cc(-c3ccc(OC)cc3)on2)c1C#N | inconclusive: 18.4 µM [rising, single point] | 
16 | Cc1ccc(CNC(=O)Nc2ccc3c(c2)N(C)C(=O)CS3)cc1 | inconclusive: 20.6 µM [cytotoxic, single point] | 
17 | CC/C(C)=N\Nc1nc(-c2cc3cc(OC)ccc3oc2=O)cs1 | inactive | 
18 | COc1ccc(NC(=O)c2cc3ccccn3n2)cc1 | inconclusive: 29.1 µM [cytotoxic, single point] | 
19 | Cc1nc(Nc2ccc3c(c2)OCCO3)c2c(C)c(C)sc2n1 | inconclusive: 29.1 µM [cytotoxic, single point] | 
20 | O=C(c1cccc(-c2ccc(O)cc2)c1)N1CCN(c2ccc(F)cc2)CC1 | inconclusive: 3.66 µM [cytotoxic, full curve, poor fit] | 
21 | CCOc1ccc(N(C)C(=O)C2CCN(S(=O)(=O)c3ccc4c(c3)CCCN4C(C)=O)CC2)cc1 | inconclusive: 29.1 µM [cytotoxic, single point] | 
22 | CCC(Sc1nc2ccncc2[nH]1)C(=O)Nc1ccc(F)cc1 (stereo not drawn) | inconclusive: 29.1 µM [rising, single point] | 
23 | O=c1[nH]c(CN2CCCCC2)nc2c1C1(CCCCC1)Cc1ccccc1-2 | inconclusive: 18.4 µM [cytotoxic, partial curve] | 

Row | Structure (SMILES) | Potency | activity change, negative = cytotoxicity
24 | CC1CCN(CC(=O)NNC(=O)c2cccc(Br)c2)CC1 | inactive | 
25 | CCOC(=O)c1c(C)[nH]c(C)c1C(=O)CSc1nc2ccccc2n1CCOC | inconclusive: 8.2 µM [cytotoxic, partial curve] | 
26 | COc1ccc(S(=O)(=O)N2c3cc(Cl)ccc3Oc3nc4ccccc4nc32)cc1 | active: 7.31 µM | 
27 | COC(=O)N1CCc2c(sc(NC(=O)C3COc4ccccc4O3)c2C(N)=O)C1 (stereo not drawn) | inconclusive: 8.2 µM [cytotoxic, partial curve] | 
28 | Cc1ccc(Cl)c(OC(=O)C2CSC3(C)CCC(=O)N23)c1 (stereo not drawn) | inconclusive: 29.1 µM [rising, single point] | 
29 | CCC(CC)C(=O)N(C)c1c(C)nc2c(OCc3ccc(Cl)cc3)cccn12 | inconclusive: 9.2 µM [cytotoxic, partial curve, poor fit] | 
30 | O=C(CCc1ccccc1)N1CCCN(C(=O)CCc2ccccc2)CC1 | active: 20.6 µM | 
31 | Cc1ccc(Cl)cc1N1CCN(C(=O)Cn2ncc3c([nH]c4ccccc43)c2=O)CC1 | inconclusive: 29.1 µM [rising, single point] | 
32 | OC[C@@H]1CN(Cc2ccc(-c3ccccc3)cc2)C[C@H](n2cnc3c(Nc4ccccc4)ncnc32)O1 | active: 20.6 µM | 
33 | CCN(CC)c1ccc(C2C(C(=O)OCCOC)=C(C)NC3=C2C(=O)CC(C)(C)C3)cc1 (stereo not drawn) | inconclusive: 16.4 µM [cytotoxic, single point] | 
34 | CC(O)[C@H]1CNC(=O)C(=O)N1CCC12CC3CC(CC(C3)C1)C2 (stereo partly drawn) | inconclusive: 16.4 µM [rising, single point] | 
35 | COC(=O)CN1C(=O)C(C)(C)Oc2ccc(C(=O)Nc3ccccc3F)cc21 | inactive | 
36 | COc1cccc(CNC(=O)CCNC(=O)c2ccco2)c1 | inconclusive: 4.11 µM [rising, partial curve] | 
37 | CNC(=S)N1CCN(S(=O)(=O)c2ccc3ccccc3c2)CC1 | inconclusive: 18.4 µM [cytotoxic, partial curve, poor fit] | 
38 | COc1ccc2nc(NC(=O)c3ccoc3C)sc2c1 | active: 7.31 µM | 
39 | CC(C)(C)OC(=O)N1CCC(C(=O)Nc2ccc(C(=O)NC3CC3)cc2)CC1 | inactive | 
40 | Cc1ccc(Cn2cnc3c(oc4ccccc43)c2=O)cc1 | inactive | 
41 | CN(C(=O)CSc1nc(N)c2c3c(sc2n1)CSC(C)(C)C3)c1ccccc1 | inactive | 
42 | Cc1ccc(C)c(N2CCN(CCCNC(=O)Cn3cccc3C(=O)c3ccccc3C)CC2)c1 | inconclusive: 8.2 µM [cytotoxic, partial curve, poor fit] | 
43 | CSc1ccccc1NC(=O)CCc1ccccc1 | inconclusive: 29.1 µM [rising, single point] | 
44 | CCOc1ccc(C(=O)Nc2c(C(=O)N3CCC(N4CCCCC4)CC3)oc3ccccc23)cc1 | inactive | 
45 | N#Cc1nc(COc2cccc(Cl)c2)oc1N1CCN(c2ccccc2)CC1 | inactive | 
46 | Cc1ccc(NC(=O)c2ccc(-n3cccn3)c([N+](=O)[O-])c2)cc1 | active: 23.1 µM | 

Row | Structure (SMILES) | Potency | activity change, negative = cytotoxicity
47 | Cc1ccccc1-c1n[nH]nc1C1=CC(=O)CC(C)(C)C1 | inconclusive: 29.1 µM [rising, single point] | 
48 | Cc1ccc(C(=O)CSc2nc(C)cc(SCc3nnc(-c4ccccc4)o3)n2)cc1 | inactive | 
49 | O=C(Nc1nc2nccc(-c3ccccc3)n2n1)C(Cl)(Cl)Cl | inactive | 
50 | S=c1[nH]nc(CSCc2ccc(Cl)cc2Cl)n1-c1ccccc1 | inconclusive: 23.1 µM [cytotoxic, partial curve, poor fit] | 
51 | CCCc1cc(=O)n2[nH]c(NCc3ccc(CC)cc3)nc2n1 | inconclusive: 18.4 µM [rising, single point] | 
52 | O=C1c2[nH]nc(-c3ccccc3)c2C(c2ccccc2)N1c1cccc(C(F)(F)F)c1 (stereo not drawn) | active: 16.4 µM | 
53 | COc1ccc(C(=O)C=CNNC(=O)c2ccc(Cl)cc2)cc1 | inconclusive: 29.1 µM [cytotoxic, single point] | 
54 | CCN(CC(=O)Nc1ccc(NC(C)=O)cc1)C(=O)c1cc(S(=O)(=O)N2CCCCCC2)ccc1OC | inconclusive: 16.4 µM [rising, single point] | 
55 | CC1CCN(S(=O)(=O)c2ccc3c(c2)N(CC(=O)NCCc2ccc(Cl)cc2)C(=O)CO3)CC1 | inconclusive: 7.31 µM [cytotoxic, partial curve, poor fit] | 
56 | CCOC(=O)c1c(C)[nH]c(C)c1S(=O)(=O)N1CCC(C(=O)N2CCN(c3cc(C)ccc3C)CC2)CC1 | inactive | 
57 | O=C(/C=C/c1ccccc1[N+](=O)[O-])N1CCN(C(=O)c2ccco2)CC1 | inactive | 
58 | Cc1ccc2oc(C(=O)Nc3ccc(S(=O)(=O)Nc4onc(C)c4C)cc3)cc(=O)c2c1 |  | inconclusive: 47.9%
59 | CCNC(=O)CCCOc1ccc(Cl)cc1Cl | inactive | 
60 | CN(C)CCN1C(=O)c2oc3ccccc3c(=O)c2C1c1cccc(Br)c1 (stereo not drawn) | active: 10.3 µM | 
61 | Cc1c(Cl)cccc1Nc1nc(N)nc(CSc2nc3ccccc3s2)n1 | inconclusive: 29.1 µM [cytotoxic, single point] | 
62 | Cc1cc(NC(=O)C(C)SCC(=O)Nc2cc(C(F)(F)F)ccc2N2CCCCC2)no1 (stereo not drawn) | inconclusive: 41.1 µM [cytotoxic, single point] | 
63 | COC(=O)CCCn1cc(CN2CC(N3CCN(Cc4ccccc4F)CC3)CS2(=O)=O)nn1 (stereo not drawn) | inconclusive: 18.4 µM [rising, single point] | 
64 | CCn1c(SCC(=O)Nc2ccc3c(c2)OCCO3)nnc1C(C)C | inconclusive: 32.6 µM [cytotoxic, partial curve, poor fit] | 
65 | O=C1C=C(NNC(=O)c2cccnc2)CC(c2ccco2)C1 (stereo not drawn) | inconclusive: 29.1 µM [rising, single point] | 
66 | COC1(OC)C=CC(=O)C=C1NC(=O)c1ccccc1OC(C)=O | inconclusive: 23.1 µM [cytotoxic, partial curve, poor fit] | 
67 | CCOc1ccc(NC(=O)CN(C)C(=O)c2cccc(S(=O)(=O)N3CCN(C)CC3)c2)cc1OCC | inactive | 
68 | CCCC(=O)Nc1nnc(SCc2cc(=O)c3ccc(C)cc3[nH]2)s1 | inconclusive: 18.4 µM [cytotoxic, single point] | 

Quoted from the listing.
Value for `O=c1[nH]c(CN2CCCCC2)nc2c1C1(CCCCC1)Cc1ccccc1-2` under Potency: inconclusive: 18.4 µM [cytotoxic, partial curve]
Value for `COC1(OC)C=CC(=O)C=C1NC(=O)c1ccccc1OC(C)=O` under Potency: inconclusive: 23.1 µM [cytotoxic, partial curve, poor fit]
